From patent US20130237484A1
These are yes or no findings as the source states them, for the method shown. Some results given as binding are weak or reduced against the parent protein; the word gives no strength.

The chains behind the UniProt entries cited, without tags or fusion partners.
UniProt Q9HCE7: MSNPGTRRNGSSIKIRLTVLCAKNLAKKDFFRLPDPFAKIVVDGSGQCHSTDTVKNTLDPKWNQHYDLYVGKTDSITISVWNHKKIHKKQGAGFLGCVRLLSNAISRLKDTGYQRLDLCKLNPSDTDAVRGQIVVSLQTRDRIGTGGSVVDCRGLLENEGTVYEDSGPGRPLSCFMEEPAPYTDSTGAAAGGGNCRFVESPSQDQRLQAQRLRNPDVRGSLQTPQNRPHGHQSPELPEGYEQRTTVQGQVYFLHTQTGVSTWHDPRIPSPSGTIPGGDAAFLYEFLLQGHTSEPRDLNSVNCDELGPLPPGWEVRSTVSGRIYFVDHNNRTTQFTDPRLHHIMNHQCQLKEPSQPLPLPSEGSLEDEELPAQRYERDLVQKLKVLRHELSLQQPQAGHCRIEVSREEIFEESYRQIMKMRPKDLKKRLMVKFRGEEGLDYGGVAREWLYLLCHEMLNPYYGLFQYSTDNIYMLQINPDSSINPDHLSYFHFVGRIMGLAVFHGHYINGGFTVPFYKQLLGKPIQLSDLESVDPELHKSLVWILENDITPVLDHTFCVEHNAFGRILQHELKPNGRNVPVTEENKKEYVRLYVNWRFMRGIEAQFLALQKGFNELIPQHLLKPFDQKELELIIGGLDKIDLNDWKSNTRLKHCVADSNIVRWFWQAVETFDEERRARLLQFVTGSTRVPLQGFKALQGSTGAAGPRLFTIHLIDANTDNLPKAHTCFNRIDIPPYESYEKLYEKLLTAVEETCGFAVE

Tests used:
[1] = target: human-derived Smurf1 protein (human) (UniProt Q9HCE7); experiment: slot blot, Smurf1 on nitrocellulose, biotinylated peptide at 0.1 to 100 mM as printed, Extravidin/ECL detection; dot size increased from 0.1 mM to 100 mM
[2] = target: human-derived Smurf1 protein (human) (UniProt Q9HCE7); experiment: slot blot, Smurf1 on nitrocellulose, biotinylated peptide at 0.1 to 100 mM as printed, Extravidin/ECL detection; increase of dot size began at 10 mM

Row | binding [1] | binding [2] | Binder
1 | binds | – | GAPPPADSAP [bone differentiation inducing sequence (…) derived from LMP1, Comparative Example 2]
2 | – | binds | GAPPPADSAPSSRKKNPNCRRH (C-terminal amide (printed as -COONH2; synthesized on Rink resin))
